PubChem BioAssay AID743454 | Peter MacCallum Cancer Centre | 2014

Aim: 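Knock-downs lowering viability or raising caspase 3/7 activity in vorinostat-treated resistant cells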 (primary screen)
Cells: human HCT116-VR colon cancer cells, selected for vorinostat resistance
Knock-down reagent: siRNA pool against human genes, 40 nM siRNA pool
Time to read-out: vorinostat for 24 h, read-out about 72 h after transfection
Challenge: vorinostat at 2.5 µM final
Measurement: 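Cell viability by CellTiter-Fluor and caspase 3/7 activity by luminescence, each scaled to mock wells per plate, duplicates averaged, then robust z-scored over all plates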
Scale: viability robust z-score: higher = more viable cells than screen typical; caspase robust z-score: higher = more caspase 3/7 activity than screen typical
Active means: 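a knock-down is a hit when classed RV1 or RV2 for lowered viability, or CA1 or CA2 for caspase activation; those lethal without drug were dropped; hits were retested singly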
Shown is an unselected part of about 18,000 reagents tested. 450 of them (2.5%) count as active. 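Single biological run; no consistent viability z cut-off exists, so the class columns, not z-scores, define the calls.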 Unmarked entries are inactive.

The first 6 entries, to show the layout:
no.	Gene	PubChem SID	viability hit class	caspase hit class	viability robust z-score	caspase robust z-score
1	MSANTD3 (Myb/SANT DNA binding domain containing 3)	SID135622913	no change	no change	-0.04	-0.05
2	FAM111B (FAM111 trypsin like peptidase B)	SID135625008	no change	no change	-0.35	1.12
3	RFX2 (regulatory factor X2)	SID134315487	no change	no change	0.41	2.01
4	ADAM17 (ADAM metallopeptidase domain 17)	SID152153543	no change	no change	0.96	-0.79
5	PLPP2 (phospholipid phosphatase 2)	SID134315834	no change	no change	-2.27	-0.8
6	DHRS13 (dehydrogenase/reductase 13)	SID152148655	no change	no change	0.08	3.05

The listing, repeating the preview:
no.	Gene	PubChem SID	viability hit class	caspase hit class	viability robust z-score	caspase robust z-score
1	MSANTD3 (Myb/SANT DNA binding domain containing 3)	SID135622913	no change	no change	-0.04	-0.05
2	FAM111B (FAM111 trypsin like peptidase B)	SID135625008	no change	no change	-0.35	1.12
3	RFX2 (regulatory factor X2)	SID134315487	no change	no change	0.41	2.01
4	ADAM17 (ADAM metallopeptidase domain 17)	SID152153543	no change	no change	0.96	-0.79
5	PLPP2 (phospholipid phosphatase 2)	SID134315834	no change	no change	-2.27	-0.8
6	DHRS13 (dehydrogenase/reductase 13)	SID152148655	no change	no change	0.08	3.05
7	MAN2B1 (mannosidase alpha class 2B member 1)	SID152149533	no change	no change	0.1	-0.36
8	FABP1 (fatty acid binding protein 1)	SID134313536	no change	no change	0.85	-0.8
9	EFCAB7 (EF-hand calcium binding domain 7)	SID152155545	no change	no change	0.8	0.88
10	MAPK1 (mitogen-activated protein kinase 1)	SID152148532	no change	no change	-2.25	-0.82
11	AKAP13 (A-kinase anchoring protein 13)	SID56479218	no change	no change	1.25	1.06
12	ZFYVE1 (zinc finger FYVE-type containing 1)	SID134317323	no change	no change	0.44	0.14
13	ALOX15 (arachidonate 15-lipoxygenase)	SID134310087	no change (active)	CA2 (caspase activation)	-2.11	5.56
14	ZNRF2 (zinc and ring finger 2)	SID134312286	no change	no change	-0.28	-0.53
15	BCS1L (BCS1 ubiquinol-cytochrome c reductase complex chaperone)	SID152148075	no change	no change	-0.13	-0.58
16	XKR6 (XK related 6)	SID152147703	RV2 (reduced viability) (active)	no change	-4.62	2.5
17	PHYKPL (5-phosphohydroxy-L-lysine phospho-lyase)	SID152152062	no change	no change	0.17	0.8
18	CLEC2B (C-type lectin domain family 2 member B)	SID134324958	no change	no change	0.34	-0.84
19	POLR2A (RNA polymerase II subunit A)	SID134315544	no change	no change	-4.39	1.94
20	STRAP (serine/threonine kinase receptor associated protein)	SID152153598	no change	no change	-1.12	2.44
21	LINS1 (lines homolog 1)	SID152153681	no change	no change	0.01	0.41
22	FRAT2 (FRAT regulator of Wnt signaling pathway 2)	SID135622313	no change	no change	-0.1	0.76
23	KBTBD2 (kelch repeat and BTB domain containing 2)	SID134326317	no change	no change	1.72	-0.12
24	DENND6B (DENN domain containing 6B)	SID152153768	no change	no change	-1.17	2.54
25	SMPX (small muscle protein X-linked)	SID134324284	no change	no change	0.52	-0.34
26	CYB561D2 (cytochrome b561 family member D2)	SID135623371	no change	no change	-1.39	-1.46
27	CEACAM7 (CEA cell adhesion molecule 7)	SID152150966	no change	no change	0.38	1.54
28	HELZ2 (helicase with zinc finger 2)	SID152149772	no change	no change	1.35	-0.26
29	SEPHS2 (selenophosphate synthetase 2)	SID135621438	no change	no change	0.15	-0.24
30	MCM9	SID135623361	no change	no change	0.92	-0.27
31	TMED10 (transmembrane p24 trafficking protein 10)	SID152154749	no change	no change	-1.17	0.62
32	TSC2 (TSC complex subunit 2)	SID152149450	no change	no change	1.11	0.62
33	ALDH8A1 (aldehyde dehydrogenase 8 family member A1)	SID152156251	no change	no change	0.42	1.48
34	FAM161A (FAM161 centrosomal protein A)	SID135624326	no change	no change	-1.69	0.23
35	METTL4 (methyltransferase 4, N6-adenosine)	SID152147926	no change	no change	1	-0.96
36	JMY (junction mediating and regulatory protein, p53 cofactor)	SID152148571	no change	no change	-0.78	0.9
37	MICALL1 (MICAL like 1)	SID152149934	no change	no change	0.79	-0.69
38	TMEM160 (transmembrane protein 160)	SID134324476	no change	no change	1.26	-0.92
39	PCDHB16 (protocadherin beta 16)	SID134317390	no change	no change	-1.02	0.55
40	SH2B1 (SH2B adaptor protein 1)	SID134318141	no change	no change	0.12	1.62
41	ZMYND15 (zinc finger MYND-type containing 15)	SID134318915	no change	no change	-0.58	-0.3
42	IL10 (interleukin 10)	SID134310725	no change	no change	0.42	1.8
43	NUP210L (nucleoporin 210 like)	SID152150602	no change	no change	0.9	0.36
44	NIPSNAP1 (nipsnap homolog 1)	SID134315824	no change	no change	0.43	1.01
45	CDYL2 (chromodomain Y like 2)	SID152152212	no change	no change	2.39	0.6
46	HOMER1 (homer scaffold protein 1)	SID134320053	no change	no change	0.55	-0.78
47	KIF2C (kinesin family member 2C)	SID134310681	no change	no change	0.2	-0.84
48	ACSF3 (acyl-CoA synthetase family member 3)	SID135623398	no change	no change	-1.09	0.24
49	RNASEH2B (ribonuclease H2 subunit B)	SID134318528	no change	no change	-0.24	-1.25
50	PRF1 (perforin 1)	SID152152197	no change	no change	0.76	0.82
51	OPRM1 (opioid receptor mu 1)	SID152148128	no change	no change	0.94	-0.86
52	BCL9 (BCL9 transcription coactivator)	SID152147091	no change	no change	-0.4	2.01
53	EPHA10 (EPH receptor A10)	SID135620971	no change	no change	-0.81	-0.48
54	P2RX6 (purinergic receptor P2X 6)	SID152149301	no change	no change	-1.16	3.77
55	BDP1 (BDP1 general transcription factor IIIB subunit)	SID152148769	RV2 (reduced viability) (active)	no change	-3.62	-0.68
56	SLC39A9	SID134312620	no change	no change	0.19	0.5
57	GCAT (glycine C-acetyltransferase)	SID134314279	no change	no change	-0.6	0.76
58	CNST (consortin, connexin sorting protein)	SID134321131	no change	no change	-0.8	0.32
59	NAPSA (napsin A aspartic peptidase)	SID134311401	no change	no change	0.62	1.76
60	TSPAN13 (tetraspanin 13)	SID152152934	no change	no change	0.42	-0.9
61	SCARB1 (scavenger receptor class B member 1)	SID152153189	no change	no change	0.18	-0.78
62	ZNF138 (zinc finger protein 138)	SID134324877	no change	no change	-0.9	-1.23
63	TRPM4	SID135621205	no change (active)	CA1 (caspase activation)	0.89	6.71
64	NLRC4 (NLR family CARD domain containing 4)	SID134310434	no change	no change	-0.54	-0.26
65	ITK (IL2 inducible T cell kinase)	SID135620623	no change	no change	0.86	0.78
66	OR5H14 (olfactory receptor family 5 subfamily H member 14)	SID134329946	no change	no change	0.12	4.38
67	DGKZ (diacylglycerol kinase zeta)	SID56479094	no change	no change	0.46	-0.44
68	PUM3 (pumilio RNA binding family member 3)	SID152154928	no change	no change	-0.42	1.64
69	NAPRT (nicotinate phosphoribosyltransferase)	SID134320885	no change	no change	-0.9	3.86
70	ZC3H6 (zinc finger CCCH-type containing 6)	SID152148131	no change	no change	0.62	-0.5
71	OR7G3 (olfactory receptor family 7 subfamily G member 3)	SID152150168	no change	no change	0.58	-0.84
72	ACTL10 (actin like 10)	SID135625233	no change	no change	1.09	0.08
73	CIPC (CLOCK interacting pacemaker)	SID134322928	no change	no change	0.43	0.37
